Source: PubChem BioAssay AID1508597 (Cure First, 2020)

Screen: 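Knock-downs altering ovarian cancer cell survival with or without PARP inhibitor rucaparib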 (primary screen)
Cell system: human ovarian carcinoma lines grown from tumours: OCI-P5x (papillary serous) and OCI-C5x (clear cell)
Knock-down reagent: siRNA pool against human genes, 1.25 pmol siRNA per well
Timing: 72 h or 96 h, depending on the cell culture
Treatment: rucaparib 20 µM (about IC30) or vehicle, present until read-out
Rucaparib or vehicle: Rucaparib
Cell line: OCI-C5x (clear cell)
Measured: 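ATP luminescence measured at 72 or 96 h according to the culture, then normalised and expressed as percent viability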
Direction: viability, normalised: higher = more viable cells remaining
Active means: 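a well counts as a hit if its normalised viability is under 80 percent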
Meaning of the calls: active = viability under 80%; inactive = viability 80% or more
This is a random part of the about 2,100 reagents, in one setting of the screen. 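Calls flag viability under 80% in either arm, not effects specific to rucaparib; the reference for percent is not stated.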 Unmarked entries are inactive. A reagent listed more than once was tested more than once; the source does not tell the runs apart. No sequences are given here. Not stated in the record: the 100% reference.

no.	gene symbol	technical replicate	viability, normalised (%)
1	TEAD4 (TEA domain transcription factor 4)	1	78.7 (active)
2	TEAD4 (TEA domain transcription factor 4)	2	53.1 (active)
3	TEAD4 (TEA domain transcription factor 4)	3	52.6 (active)
4	BRCC3 (BRCA1/BRCA2-containing complex subunit 3)	1	59.5 (active)
5	BRCC3 (BRCA1/BRCA2-containing complex subunit 3)	1	61 (active)
6	BRCC3 (BRCA1/BRCA2-containing complex subunit 3)	2	57.2 (active)
7	BRCC3 (BRCA1/BRCA2-containing complex subunit 3)	2	57.4 (active)
8	BRCC3 (BRCA1/BRCA2-containing complex subunit 3)	3	58.6 (active)
9	BRCC3 (BRCA1/BRCA2-containing complex subunit 3)	3	47.7 (active)
10	SCYL3 (SCY1 like pseudokinase 3)	1	77.3 (active)
11	SCYL3 (SCY1 like pseudokinase 3)	2	54.1 (active)
12	SCYL3 (SCY1 like pseudokinase 3)	3	64.2 (active)
13	POU5F1B (POU class 5 homeobox 1B)	1	51.1 (active)
14	POU5F1B (POU class 5 homeobox 1B)	2	79.1 (active)
15	POU5F1B (POU class 5 homeobox 1B)	3	55.8 (active)
16	ASF1A (anti-silencing function 1A histone chaperone)	1	56.7 (active)
17	ASF1A (anti-silencing function 1A histone chaperone)	2	64.4 (active)
18	ASF1A (anti-silencing function 1A histone chaperone)	3	40.9 (active)
19	PIM3 (Pim-3 proto-oncogene, serine/threonine kinase)	1	54.4 (active)
20	PIM3 (Pim-3 proto-oncogene, serine/threonine kinase)	2	30.8 (active)
21	PIM3 (Pim-3 proto-oncogene, serine/threonine kinase)	3	47.9 (active)
22	VAX2 (ventral anterior homeobox 2)	1	70.3 (active)
23	VAX2 (ventral anterior homeobox 2)	2	61.5 (active)
24	VAX2 (ventral anterior homeobox 2)	3	52.1 (active)
25	SPTA1 (spectrin alpha, erythrocytic 1)	1	56.7 (active)
26	SPTA1 (spectrin alpha, erythrocytic 1)	2	64.6 (active)
27	SPTA1 (spectrin alpha, erythrocytic 1)	3	71 (active)
28	MCCC1 (methylcrotonyl-CoA carboxylase subunit 1)	1	58.7 (active)
29	MCCC1 (methylcrotonyl-CoA carboxylase subunit 1)	2	44.3 (active)
30	MCCC1 (methylcrotonyl-CoA carboxylase subunit 1)	3	55.6 (active)
31	SMPD3 (sphingomyelin phosphodiesterase 3)	1	74.4 (active)
32	SMPD3 (sphingomyelin phosphodiesterase 3)	2	71.2 (active)
33	SMPD3 (sphingomyelin phosphodiesterase 3)	3	76.9 (active)
34	CLK1 (CDC like kinase 1)	1	45 (active)
35	CLK1 (CDC like kinase 1)	2	48.9 (active)
36	CLK1 (CDC like kinase 1)	3	46.3 (active)
37	APEX2 (apurinic/apyrimidinic endodeoxyribonuclease 2)	1	42.8 (active)
38	APEX2 (apurinic/apyrimidinic endodeoxyribonuclease 2)	2	54 (active)
39	APEX2 (apurinic/apyrimidinic endodeoxyribonuclease 2)	3	56.8 (active)
40	IL23A (interleukin 23 subunit alpha)	1	50 (active)
41	IL23A (interleukin 23 subunit alpha)	2	35.7 (active)
42	IL23A (interleukin 23 subunit alpha)	3	43.6 (active)
43	PIK3CG	1	58.3 (active)
44	PIK3CG	2	80.7
45	PIK3CG	3	67.9 (active)
46	ZNF541 (zinc finger protein 541)	1	59.1 (active)
47	ZNF541 (zinc finger protein 541)	2	51.6 (active)
48	ZNF541 (zinc finger protein 541)	3	49.8 (active)
49	FANCB (FA complementation group B)	1	69.3 (active)
50	FANCB (FA complementation group B)	2	68.8 (active)
51	FANCB (FA complementation group B)	3	53.8 (active)
52	PGK2 (phosphoglycerate kinase 2)	1	49.2 (active)
53	PGK2 (phosphoglycerate kinase 2)	2	64.5 (active)
54	PGK2 (phosphoglycerate kinase 2)	3	58.2 (active)
55	CDK18 (cyclin dependent kinase 18)	1	55.8 (active)
56	CDK18 (cyclin dependent kinase 18)	2	51.8 (active)
57	CDK18 (cyclin dependent kinase 18)	3	54.8 (active)
58	DGKI (diacylglycerol kinase iota)	1	58.3 (active)
59	DGKI (diacylglycerol kinase iota)	2	50.7 (active)
60	DGKI (diacylglycerol kinase iota)	3	43.8 (active)
61	KMT2D (lysine methyltransferase 2D)	1	52.4 (active)
62	KMT2D (lysine methyltransferase 2D)	2	30.2 (active)
63	KMT2D (lysine methyltransferase 2D)	3	36.3 (active)
64	UBE2V2 (ubiquitin conjugating enzyme E2 V2)	1	31.2 (active)
65	UBE2V2 (ubiquitin conjugating enzyme E2 V2)	2	38.7 (active)
66	UBE2V2 (ubiquitin conjugating enzyme E2 V2)	3	44.2 (active)
67	PML (PML nuclear body scaffold)	1	42.8 (active)
68	PML (PML nuclear body scaffold)	1	49.1 (active)
69	PML (PML nuclear body scaffold)	2	43.4 (active)
70	PML (PML nuclear body scaffold)	2	33.2 (active)
71	PML (PML nuclear body scaffold)	3	37.9 (active)
72	PML (PML nuclear body scaffold)	3	51.1 (active)
73	KPNA4 (karyopherin subunit alpha 4)	1	48.2 (active)
74	KPNA4 (karyopherin subunit alpha 4)	2	61.7 (active)
75	KPNA4 (karyopherin subunit alpha 4)	3	66.2 (active)
